Results are given in words; binding and its absence hold for the method and conditions named. Binding seen in cells or lysates may run through a third protein. A result given as binding can be weak or reduced; the word gives no strength. For some assays here: Tags and fused reporters may be left off the sequences shown.
B1: Flag-SPRY2 (protein, UniProt O43597 1-315)
chain: MEARAQSGNGSQPLLQTPRDGGRQRGEPDPRDALTQQVHVLSLDQIRAIRNTNEYTEGPTVVPRPGLKPAPRPSTQHKHERLHGLPEHRQPPRLQHSQVHSSARAPLSRSISTVSSGSRSSTRTSTSSSSSEQRLLGSSFSSGPVADGIIRVQPKSELKPGELKPLSKEDLGLHAYRCEDCGKCKCKECTYPRPLPSDWICDKQCLCSAQNVIDYGTCVCCVKGLFYHCSNDDEDNCADNPCSCSQSHCCTRWSAMGVMSLFLPCLWCYLPAKGCLKLCQGCYDRVNRPGCRCKNSNTVCCKVPTVPPRNFEKPT
B2: Omni-Sema6A cytoplasmic domain (residues 650-1021) (domain or fragment, UniProt Q9H2E6 650-1021)
chain: LLAIAVILAFVMGAVFSGITVYCVCDHRRKDVAVVQRKEKELTHSRRGSMSSVTKLSGLFGDTQSKDPKPEAILTPLMHNGKLATPGNTAKMLIKADQHHLDLTALPTPESTPTLQQKRKPSRGSREWERNQNLINACTKDMPPMGSPVIPTDLPLRASPSHIPSVVVLPITQQGYQHEYVDQPKMSEVAQMALEDQAATLEYKTIKEHLSSKSPNHGVNLVENLDSLPPKVPQREASLGPPGASLSQTGLSKRLEMHHSSSYGVDYKRSYPTNSLTRSHQATTLKRNNTNSSNSSHLSRNQSFGRGDNPPPAPQRVDSIQVHSSQPSGQAVTVSRQPSLNAYNSLTRSGLKRTPSLKPDVPPKPSFAPLST
B3: Omni-Reps1 (full-length) (protein, UniProt Q96D71 1-796)
chain: MEGLTLSDAEQKYYSDLFSYCDIESTKKVVVNGRVLELFRAAQLPNDVVLQIMELCGATRLGYFGRSQFYIALKLVAVAQSGFPLRVESINTVKDLPLPRFVASKNEQESRHAASYSSDSENQGSYSGVIPPPPGRGQVKKGSVSHDTVQPRTSADAQEPASPVVSPQQSPPTSPHTWRKHSRHPSGGNSERPLAGPGPFWSPFGEAQSGSSAGDAVWSGHSPPPPQENWVSFADTPPTSTLLTMHPASVQDQTTVRTVASATTAIEIRRQSSSYDDPWKITDEQRQYYVNQFKTIQPDLNGFIPGSAAKEFFTKSKLPILELSHIWELSDFDKDGALTLDEFCAAFHLVVARKNGYDLPEKLPESLMPKLIDLEDSADVGDQPGEVGYSGSPAEAPPSKSPSMPSLNQTWPELNQSSEQWETFSERSSSSQTLTQFDSNIAPADPDTAIVHPVPIRMTPSKIHMQEMELKRTGSDHTNPTSPLLVKPSDLLEENKINSSVKFASGNTVADGYSSSDSFTSDPEQIGSNVTRQRSHSGTSPDNTAPPPPPPRPQPSHSRSSSLDMNRTFTVTTGQQQAGVVAHPPAVPPRPQPSQAPGPAVHRPVDADGLITHTSTSPQQIPEQPNFADFSQFEVFAASNVNDEQDDEAEKHPEVLPAEKASDPASSLRVAKTDSKTEEKTAASAPANVSKGTTPLAPPPKPVRRRLKSEDELRPEVDEHTQKTGVLAAVLASQPSIPRSVGKDKKAIQASIRRNKETNTVLARLNSELQQQLKDVLEERISLEVQLEQLRPFSHL

Chains of the proteins cited; added tags and fusions are not shown. Lines headed by an entry give the natural chain unless they say otherwise; changes in a name come on top. Residues count along the entry.
UniProt Q15811: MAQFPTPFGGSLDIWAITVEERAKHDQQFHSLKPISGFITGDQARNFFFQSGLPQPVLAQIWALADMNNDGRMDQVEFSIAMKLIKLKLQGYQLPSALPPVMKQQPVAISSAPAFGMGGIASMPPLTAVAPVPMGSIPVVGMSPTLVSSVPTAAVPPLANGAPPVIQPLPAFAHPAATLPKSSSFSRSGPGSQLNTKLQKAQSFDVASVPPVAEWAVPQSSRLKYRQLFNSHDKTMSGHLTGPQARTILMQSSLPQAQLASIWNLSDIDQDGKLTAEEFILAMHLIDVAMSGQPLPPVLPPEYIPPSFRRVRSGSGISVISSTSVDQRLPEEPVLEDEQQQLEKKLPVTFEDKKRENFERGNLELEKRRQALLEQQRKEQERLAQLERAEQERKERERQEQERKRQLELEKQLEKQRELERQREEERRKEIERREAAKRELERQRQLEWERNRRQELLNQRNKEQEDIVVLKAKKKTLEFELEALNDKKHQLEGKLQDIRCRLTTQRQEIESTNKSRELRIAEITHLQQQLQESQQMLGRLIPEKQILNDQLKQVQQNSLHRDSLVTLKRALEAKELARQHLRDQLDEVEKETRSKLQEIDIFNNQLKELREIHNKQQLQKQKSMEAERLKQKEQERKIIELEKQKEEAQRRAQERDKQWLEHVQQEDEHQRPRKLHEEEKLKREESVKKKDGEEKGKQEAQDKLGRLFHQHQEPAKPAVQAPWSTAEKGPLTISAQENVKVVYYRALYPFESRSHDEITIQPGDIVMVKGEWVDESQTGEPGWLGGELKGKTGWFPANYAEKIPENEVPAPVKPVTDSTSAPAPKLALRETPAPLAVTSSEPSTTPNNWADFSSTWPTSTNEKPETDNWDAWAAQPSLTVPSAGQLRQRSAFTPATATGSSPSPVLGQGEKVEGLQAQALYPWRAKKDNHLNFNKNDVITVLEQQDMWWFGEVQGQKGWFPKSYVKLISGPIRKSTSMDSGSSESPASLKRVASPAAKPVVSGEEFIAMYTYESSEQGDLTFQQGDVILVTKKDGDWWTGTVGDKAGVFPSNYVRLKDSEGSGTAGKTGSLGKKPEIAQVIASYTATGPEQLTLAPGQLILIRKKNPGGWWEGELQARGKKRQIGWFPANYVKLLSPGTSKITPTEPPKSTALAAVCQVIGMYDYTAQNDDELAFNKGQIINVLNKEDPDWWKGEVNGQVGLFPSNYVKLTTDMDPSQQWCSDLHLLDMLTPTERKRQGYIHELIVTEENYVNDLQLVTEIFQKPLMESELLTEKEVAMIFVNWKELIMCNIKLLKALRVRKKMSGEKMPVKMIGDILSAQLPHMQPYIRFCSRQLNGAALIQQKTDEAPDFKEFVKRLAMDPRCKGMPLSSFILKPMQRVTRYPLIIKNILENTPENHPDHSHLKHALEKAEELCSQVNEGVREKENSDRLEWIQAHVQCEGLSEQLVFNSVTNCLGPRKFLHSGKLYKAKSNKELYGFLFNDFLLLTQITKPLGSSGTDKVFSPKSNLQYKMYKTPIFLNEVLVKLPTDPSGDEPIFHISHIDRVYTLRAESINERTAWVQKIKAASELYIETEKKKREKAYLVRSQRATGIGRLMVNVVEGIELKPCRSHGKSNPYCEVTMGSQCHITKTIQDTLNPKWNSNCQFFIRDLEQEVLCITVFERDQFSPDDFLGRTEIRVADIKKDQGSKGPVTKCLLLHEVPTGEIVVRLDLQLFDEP
UniProt O43426, residues 1003-1558: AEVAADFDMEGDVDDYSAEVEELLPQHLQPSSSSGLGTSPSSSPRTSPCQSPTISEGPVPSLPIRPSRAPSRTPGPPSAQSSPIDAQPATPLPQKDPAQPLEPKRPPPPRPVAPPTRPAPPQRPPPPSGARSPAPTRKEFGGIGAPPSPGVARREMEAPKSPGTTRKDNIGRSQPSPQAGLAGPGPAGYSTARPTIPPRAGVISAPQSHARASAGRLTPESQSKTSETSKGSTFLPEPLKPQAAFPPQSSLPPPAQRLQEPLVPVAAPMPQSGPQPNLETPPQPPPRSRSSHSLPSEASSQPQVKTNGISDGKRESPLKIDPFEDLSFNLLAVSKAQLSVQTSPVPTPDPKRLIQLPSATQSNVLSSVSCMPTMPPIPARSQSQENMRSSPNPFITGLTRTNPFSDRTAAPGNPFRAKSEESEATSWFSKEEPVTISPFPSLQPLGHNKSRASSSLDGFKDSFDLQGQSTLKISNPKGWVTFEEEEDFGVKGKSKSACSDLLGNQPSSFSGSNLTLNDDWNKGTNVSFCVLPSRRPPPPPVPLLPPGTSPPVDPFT
UniProt O00401, residues 22-459: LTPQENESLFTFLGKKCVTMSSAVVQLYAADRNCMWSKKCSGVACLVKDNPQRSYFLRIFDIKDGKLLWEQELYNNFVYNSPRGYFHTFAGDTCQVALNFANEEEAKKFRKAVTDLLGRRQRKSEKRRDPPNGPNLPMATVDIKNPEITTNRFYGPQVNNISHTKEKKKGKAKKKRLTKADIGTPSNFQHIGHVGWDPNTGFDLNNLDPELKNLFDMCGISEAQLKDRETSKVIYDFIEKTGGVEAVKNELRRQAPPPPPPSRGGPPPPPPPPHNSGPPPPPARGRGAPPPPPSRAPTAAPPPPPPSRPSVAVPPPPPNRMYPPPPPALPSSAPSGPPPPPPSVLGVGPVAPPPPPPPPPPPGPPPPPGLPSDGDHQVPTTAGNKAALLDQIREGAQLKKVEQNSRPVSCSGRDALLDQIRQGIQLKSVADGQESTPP

What was measured:
Assay in all cases: pull-down; GST-SH3 domains (5-20 ug) on glutathione beads incubated 2 h at 4°C with lysate of HEK293 cells expressing the tagged protein; 20 mM Tris-HCl pH 7.5, 0.5% NP40, 150 mM NaCl, 10% glycerol, 1 mM Na3VO4; immunoblot with antibodies against tags; only the target purified
[1] = target: GST-fused SH3A domain of ITSN1 (human) (UniProt Q15811)
[2] = target: GST-fused SH3C domain of ITSN1 (human) (UniProt Q15811)
[3] = target: GST-fused SH3E domain of ITSN1 (human) (UniProt Q15811)
[4] = target: GST-fused SH3(A-E) domains of ITSN1 (human) (UniProt Q15811)

| Molecule | binding [1] | binding [2] | binding [3] | binding [4] |
| --- | --- | --- | --- | --- |
| Omni-synaptojanin 1 proline-rich domain (residues 1003-1558) (from UniProt O43426 1003-1558) (domain or fragment) | binds | binds | binds |  |
| Omni-N-WASP proline-rich domain (residues 22-459) (from UniProt O00401 22-459) (domain or fragment) |  |  |  | binds |
| B1 | binds | binds | binds |  |
| B2 | binds | binds | binds |  |
| B3 |  |  |  | binds |
